Laboratory results as given in article PMC3357421, “Conserved Orb6 Phosphorylation Sites Are Essential for Polarized Cell Growth in Schizosaccharomyces pombe” (PLoS ONE, 2012).
Residue numbers refer to the chain shown, from its start. Results are given in words; binding and its absence hold for the method and conditions named. In cells and extracts the contact can be indirect. Some results given as binding are weak or reduced against the parent protein; the word gives no strength. Tags and fused reporters may be left off the sequences shown.

Key:
Assay in all cases: co-IP; extracts of S. pombe WT (SP199) cells co-expressing an HA-tagged and a Myc-tagged protein; HA-protein immunoprecipitated with 12CA5 (anti-HA) and protein A sepharose, 2 hours at 4°C; lysis buffer 50 mM Tris-HCl pH 7.4, 100 mM NaCl, 2 mM EDTA, 0.1% Non-Idet P-40; immunoprecipitates probed with anti-Myc (9E10)
HA-Orb6 (S. pombe) = target: T1, HA-Orb6 (S. pombe) (UniProt O13310)
T1 sequence: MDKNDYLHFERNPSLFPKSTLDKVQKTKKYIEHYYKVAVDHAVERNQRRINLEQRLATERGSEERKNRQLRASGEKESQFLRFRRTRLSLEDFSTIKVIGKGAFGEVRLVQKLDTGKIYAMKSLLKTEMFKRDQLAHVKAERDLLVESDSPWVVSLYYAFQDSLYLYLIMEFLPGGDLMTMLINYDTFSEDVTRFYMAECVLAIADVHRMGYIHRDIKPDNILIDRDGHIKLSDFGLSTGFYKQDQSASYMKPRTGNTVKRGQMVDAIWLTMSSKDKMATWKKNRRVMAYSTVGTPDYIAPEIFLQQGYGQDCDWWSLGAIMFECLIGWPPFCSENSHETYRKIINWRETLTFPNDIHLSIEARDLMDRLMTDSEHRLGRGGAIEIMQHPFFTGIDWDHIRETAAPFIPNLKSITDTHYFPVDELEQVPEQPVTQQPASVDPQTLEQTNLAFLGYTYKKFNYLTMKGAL

HA-Orb6^S291A (S. pombe) = target: T2, HA-Orb6^S291A (S. pombe) (UniProt O13310)
T2 sequence: T1 sequence with S291A

HA-Orb6^T456A (S. pombe) = target: T3, HA-Orb6^T456A (S. pombe) (UniProt O13310)
T3 sequence: T1 sequence with T456A

HA-Nak1 (S. pombe) = target: T4, HA-Nak1 (S. pombe) (UniProt O75011)
T4 sequence: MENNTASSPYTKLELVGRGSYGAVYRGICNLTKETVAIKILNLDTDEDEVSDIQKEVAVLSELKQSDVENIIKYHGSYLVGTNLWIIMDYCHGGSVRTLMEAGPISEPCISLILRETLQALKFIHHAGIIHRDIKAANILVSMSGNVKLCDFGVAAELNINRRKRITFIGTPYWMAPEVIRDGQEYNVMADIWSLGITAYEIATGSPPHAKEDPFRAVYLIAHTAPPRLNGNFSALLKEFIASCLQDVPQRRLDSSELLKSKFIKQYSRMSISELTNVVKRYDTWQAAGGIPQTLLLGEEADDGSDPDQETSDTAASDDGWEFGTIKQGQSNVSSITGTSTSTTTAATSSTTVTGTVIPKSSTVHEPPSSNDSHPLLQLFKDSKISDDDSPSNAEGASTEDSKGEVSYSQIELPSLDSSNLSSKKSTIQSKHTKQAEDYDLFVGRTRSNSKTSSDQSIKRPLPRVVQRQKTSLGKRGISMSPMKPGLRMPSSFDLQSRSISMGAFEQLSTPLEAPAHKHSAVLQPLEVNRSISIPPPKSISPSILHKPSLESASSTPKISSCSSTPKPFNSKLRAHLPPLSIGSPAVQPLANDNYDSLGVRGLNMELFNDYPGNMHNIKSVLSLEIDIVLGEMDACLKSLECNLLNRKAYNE

HA-Nak1^1–629 (S. pombe) = target: T5, HA-Nak1^1–629 (S. pombe) (UniProt O75011)
T5 sequence: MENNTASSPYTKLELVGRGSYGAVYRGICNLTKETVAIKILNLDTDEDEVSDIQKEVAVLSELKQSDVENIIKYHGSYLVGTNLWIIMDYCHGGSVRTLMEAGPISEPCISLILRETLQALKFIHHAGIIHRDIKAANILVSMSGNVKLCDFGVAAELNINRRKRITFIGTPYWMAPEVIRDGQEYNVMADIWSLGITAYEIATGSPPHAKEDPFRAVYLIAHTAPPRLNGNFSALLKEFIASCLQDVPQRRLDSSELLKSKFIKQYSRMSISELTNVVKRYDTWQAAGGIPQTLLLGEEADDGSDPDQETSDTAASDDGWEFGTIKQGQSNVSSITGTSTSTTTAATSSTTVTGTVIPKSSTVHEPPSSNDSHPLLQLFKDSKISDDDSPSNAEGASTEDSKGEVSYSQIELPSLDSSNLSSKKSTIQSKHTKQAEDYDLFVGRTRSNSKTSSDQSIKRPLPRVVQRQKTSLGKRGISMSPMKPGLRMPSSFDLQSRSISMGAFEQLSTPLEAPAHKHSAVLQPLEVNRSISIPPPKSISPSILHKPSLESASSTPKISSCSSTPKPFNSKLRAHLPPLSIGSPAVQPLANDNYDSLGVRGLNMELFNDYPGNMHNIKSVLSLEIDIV

[1] = target: T6, HA-Nak1^554–652 (S. pombe) (UniProt O75011)
T6 sequence: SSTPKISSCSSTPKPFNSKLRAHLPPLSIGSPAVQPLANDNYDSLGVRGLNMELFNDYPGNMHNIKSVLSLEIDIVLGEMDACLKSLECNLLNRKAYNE

Measured: binding

B1: Myc-Nak1 (enzyme, UniProt O75011 1-652)
chain: T4 sequence
binds: HA-Orb6 (S. pombe) | HA-Orb6^S291A (S. pombe) | HA-Orb6^T456A (S. pombe)

B2: GST-Orb6 (enzyme, S. pombe, UniProt O13310 1-469, looked up)
chain: T1 sequence
notes: Orb6, Ndr-related Ser/Thr kinase of fission yeast (Schizosaccharomyces pombe); PCR-amplified cDNA fragment encoding Orb6 in pGEX-5X-1 (a pGEX-6p-1 construct was also made); also called pGEX-5X-1-Orb6; source: E. coli BL21, purified (Glutathione Sepharose 4B)
binds: HA-Nak1 (S. pombe) | HA-Nak1^1–629 (S. pombe) | [1]
